Results deposited as PubChem BioAssay AID1259405 (NCATS, 2018)
Test: 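Mouse-designed siRNAs used to find CHO productivity engineering targets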 (primary screen). System: Chinese hamster CHO-K1 ovary cells with stable secreted eGFP expression. Reagents: single siRNA against mouse genes, 0.8 pmol siRNA per well (2 µl of 400 nM stock). Duration: 3 days. Measurement: 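Percent of the per-plate non-targeting control median for intracellular GFP per well by laser scanning cytometry and for cell viability by ATP luminescence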. Reading the numbers: GFP, % of control: higher = more GFP per well, higher productivity; viability (ATP), % of control: higher = more viable cells (more ATP). Call rule: 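Called active when intracellular GFP, relative to negative control, is at or above 120%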.
Shown is an unselected part of about 50,000 deposited reagents. Of all reagents, about 4,000 (8%) got an active call. 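Mouse siRNA library applied to hamster cells; one well for each siRNA.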 Unmarked entries are inactive. The numbers tell different reagents against one gene apart.

target gene	siRNA no.	GFP, % of control	viability (ATP), % of control
Adprh	1	106	87.7
Adprh	2	66.4	111
Adprh	3	87	97.3
Unc5d	1	81.2	89.9
Unc5d	2	43.5	73.5
Unc5d	3	55.5	69.8
Il1rapl2	1	85.3	39.6
Il1rapl2	2	75.1	77.2
Il1rapl2	3	51.4	52.6
Myl1	1	86.8	100
Myl1	2	79.1	85.1
Appl1	1	61.5	80.6
Appl1	2	78	136
Appl1	3	62.8	88.9
Tsen2	1	36.9	57.2
Tsen2	2	82.2	108
Tsen2	3	119	102
Arv1	1	82.5	130
Arv1	2	103	96.2
Arv1	3	89.7	66.2
Or9i2	1	85.7	84
Or9i2	2	82.5	95.6
Or9i2	3	74.4	65.2
Tlr7	1	71.7	41.9
Tlr7	2	65.7	40.7
Tlr7	3	41.6	35.1
Plekhs1	1	102	87.6
Plekhs1	2	68.4	64.5
Plekhs1	3	80.7	95.5
Atp8b3	1	121 (active)	109
Atp8b3	2	67.5	99.6
Atp8b3	3	91	80.5
Mfap2	1	49.4	38.3
Mfap2	2	72.9	65.8
Mfap2	3	62.9	64.3
C1qtnf3	1	43.1	42.4
C1qtnf3	2	95.8	85.2
C1qtnf3	3	106	89.8
Bzw2	1	46.5	63.8
Bzw2	2	48	67.8
Bzw2	3	43.5	40.7
Slc5a2	1	150 (active)	78.5
Slc5a2	2	105	91.1
Slc5a2	3	50.6	43.9
Bspry	1	79.8	71.2
Bspry	2	110	88.5
Parp3	1	96.5	87.7
Parp3	2	84.6	68
Parp3	3	67.5	75.8
Ubxn2a	1	46.7	59.2
Ubxn2a	2	64	84.6
Ubxn2a	3	85.2	97.8
Or5d47	1	62.7	54.3
Or5d47	2	119	91.9
Or5d47	3	53	84
Cd180	1	88.3	109
Cd180	2	113	87
Cd180	3	77.3	86.1
Pla2g4e	1	91.7	27.3
Pla2g4e	2	154 (active)	73.1
Pla2g4e	3	125 (active)	76
Clspn	1	136 (active)	119
Clspn	2	29	63.3
Clspn	3	95.5	89.8
Cyp2b13	1	131 (active)	74.2
Cyp2b13	2	28	55.2
Cyp2b13	3	94.8	100
Glipr1l2	1	87.1	89.3
Glipr1l2	2	82.6	52.2
Glipr1l2	3	93.8	97.9
Zfp318	1	46.7	52.5
Zfp318	2	105	60
Zfp318	3	96.4	93.6
Hapln3	1	55.7	41
Hapln3	2	97.7	72.9
Hapln3	3	63.7	48.9
Prkdc	1	62.4	68.9
Slc13a1	1	64	99.1
Slc13a1	2	47.5	55.4
Slc13a1	3	75	65.7
Abcd4	1	71.7	94.2
Abcd4	2	32.3	51.9
Abcd4	3	63.1	66.1
Clec4a3	1	40.9	33.8
Clec4a3	2	112	78.1
Clec4a3	3	64.5	56.8

Just “viability (ATP), % of control”, for 12 of the entries above:
Cyp2b13 #1	74.2 (active)
Cyp2b13 #2	55.2
Cyp2b13 #3	100
Glipr1l2 #1	89.3
Glipr1l2 #2	52.2
Glipr1l2 #3	97.9
Zfp318 #1	52.5
Zfp318 #2	60
Zfp318 #3	93.6
Hapln3 #1	41
Hapln3 #2	72.9
Hapln3 #3	48.9
